This assay concerns the target transactive response DNA binding protein 43 kDa (human (endogenous in iPSC-derived motor neurons)) (UniProt Q13148). Briefly: affinity purification with mass spectrometry; anti-TDP-43 (N-terminal) antibody coupled to M-270 epoxy beads; about 1 mg protein of iPSC-neuron lysate (control and KIF1A mutant neurons), 12 to 16 hours at 4°C; eluate analysed by LC-MS/MS.

Sequences of proteins named here, by UniProt entry; tags and fusion partners are left off.
UniProt Q13148: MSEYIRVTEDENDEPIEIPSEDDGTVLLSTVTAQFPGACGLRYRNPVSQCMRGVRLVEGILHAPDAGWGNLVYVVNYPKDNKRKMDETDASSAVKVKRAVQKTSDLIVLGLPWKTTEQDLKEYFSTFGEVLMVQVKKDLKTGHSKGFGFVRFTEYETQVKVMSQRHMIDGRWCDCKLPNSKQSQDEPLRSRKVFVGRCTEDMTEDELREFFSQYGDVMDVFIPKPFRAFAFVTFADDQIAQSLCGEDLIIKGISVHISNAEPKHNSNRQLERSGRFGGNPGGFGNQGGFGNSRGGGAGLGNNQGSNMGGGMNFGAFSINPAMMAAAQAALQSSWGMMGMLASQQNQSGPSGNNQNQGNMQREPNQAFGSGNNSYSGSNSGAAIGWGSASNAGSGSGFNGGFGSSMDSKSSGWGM

No constants are given. Whether binding was seen depends on the method and setting. Binding seen in cells or lysates may run through a third protein. A yes stands for co-enrichment or nearness to the bait. Other partners may have been found.

B1: KIF3B (protein, UniProt O15066 1-747)
chain: MSKLKSSESVRVVVRCRPMNGKEKAASYDKVVDVDVKLGQVSVKNPKGTAHEMPKTFTFDAVYDWNAKQFELYDETFRPLVDSVLQGFNGTIFAYGQTGTGKTYTMEGIRGDPEKRGVIPNSFDHIFTHISRSQNQQYLVRASYLEIYQEEIRDLLSKDQTKRLELKERPDTGVYVKDLSSFVTKSVKEIEHVMNVGNQNRSVGATNMNEHSSRSHAIFVITIECSEVGLDGENHIRVGKLNLVDLAGSERQAKTGAQGERLKEATKINLSLSALGNVISALVDGKSTHIPYRDSKLTRLLQDSLGGNAKTVMVANVGPASYNVEETLTTLRYANRAKNIKNKPRVNEDPKDALLREFQEEIARLKAQLEKRSIGRRKRREKRREGGGSGGGGEEEEEEGEEGEEEGDDKDDYWREQQEKLEIEKRAIVEDHSLVAEEKMRLLKEKEKKMEDLRREKDAAEMLGAKIKAMESKLLVGGKNIVDHTNEQQKILEQKRQEIAEQKRREREIQQQMESRDEETLELKETYSSLQQEVDIKTKKLKKLFSKLQAVKAEIHDLQEEHIKERQELEQTQNELTRELKLKHLIIENFIPLEEKSKIMNRAFFDEEEDHWKLHPITRLENQQMMKRPVSAVGYKRPLSQHARMSMMIRPEARYRAENIVLLELDMPSRTTRDYEGPAIAPKVQAALDAALQDEDEIQVDASSFESTANKKSKARPKSGRKSGSSSSSSGTPASQLYPQSRGLVPK
Regarding B1, the binding result is “binds”.

Source of the values: publication PMC12597689.
